In PubChem BioAssay AID651814 (National Center for Advancing Translational Sciences (NCATS), 2012):
Among all 2,100 compounds or so, about 590 (28%) were called active. The shares of active, inactive and inconclusive entries below differ from those in the screen. Calls come from the whole dose curve; as a rule, active = well fitted inhibition curve with a large enough effect; inconclusive = small, poorly fitted or top-dose-only effect; inactive = flat fitted curve, though single readings scatter. A potency beside an inconclusive call is a rough fit, not a confirmed value.

The chains behind the UniProt entries cited, without tags or fusion partners. Where a name states a change or a piece, a line headed by the entry shows the natural chain unless it says otherwise.
UniProt Q8IUX4: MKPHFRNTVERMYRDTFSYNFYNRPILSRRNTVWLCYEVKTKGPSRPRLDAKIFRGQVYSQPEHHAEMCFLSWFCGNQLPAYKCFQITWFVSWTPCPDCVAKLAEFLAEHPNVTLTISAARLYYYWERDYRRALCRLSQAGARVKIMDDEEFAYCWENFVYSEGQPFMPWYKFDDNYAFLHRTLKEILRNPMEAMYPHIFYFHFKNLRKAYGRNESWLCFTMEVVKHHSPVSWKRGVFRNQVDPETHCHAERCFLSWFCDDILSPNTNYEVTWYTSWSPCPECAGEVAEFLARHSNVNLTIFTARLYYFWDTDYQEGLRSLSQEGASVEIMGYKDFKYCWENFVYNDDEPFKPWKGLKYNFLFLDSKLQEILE

Biological target: DNA dC->dU-editing enzyme APOBEC-3F (Homo sapiens) (UniProt Q8IUX4)
Assay: qHTS for inhibitors of Vif-A3F interactions: Cherry picks; note: nearly all actives have a fitted effect of over 70% in size;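 for max response: % of control where 0% means no effect; active compounds raise eYFP fluorescence by blocking Vif-driven A3F loss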
Conditions: HeLa A3F-eYFP + Vif (tagged APOBEC3F with the HIV-1 protein that degrades it), eYFP fluorescence, 24 h
Procedure, shortened: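 Read-out: yellow fluorescence (ex 488 nm, em 500-530 nm) by laser-scanning cytometer after 24 h compound exposure, several concentrations, at 37 deg C. Cells: HeLa line stably co-expressing Vif and C-terminally eYFP-tagged A3F; MG132 served as positive control.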
Potency is the fitted concentration of half-maximal effect.

Structure (SMILES)	Potency	max response
CCOCCC(=O)Nc1ccc2c(c1)c(=O)n(C)n2C/C=C/c1ccccc1	inconclusive: 7.04 µM [inhibitor, partial curve]	
COC(=O)c1[nH]c2c(c1C(=O)OC)CCc1ccccc1-2		inactive: -7.85%
CCOc1ccc(C(=O)COC(=O)Cc2n[nH]c(=O)c3ccccc23)cc1	inconclusive: 9.94 µM [inhibitor, partial curve]	
CCOC(=O)c1c(NC(=O)c2ccc(S(=O)(=O)N3CCC(C)CC3)cc2)sc2c1CCN(C)C2	inconclusive: 18.4 µM [inhibitor, single point]	
COc1cc(/C=C/C(=O)c2ccc([N+](=O)[O-])o2)ccc1O	inconclusive: 25 µM [inhibitor, single point]	
O=C(NCc1ccc2c(c1)OCO2)c1cc([N+](=O)[O-])ccc1N1CCCCC1	inconclusive: 1.77 µM [inhibitor, full curve]	
CN(C)c1ccc(/C=C/c2cc(N(C)C)nc3ccccc23)cc1	active: 9.2 µM	
Cc1ccccc1-n1c(/C=C/c2c(C)n(C)c3ccccc23)nc2ccccc2c1=O	active: 8.2 µM	
COc1ccc(-c2nc3c4ccccc4ccn3c2Cc2ccsc2)cc1OC		inactive: -2.92%
CCN1C/C(=C\c2cccc([N+](=O)[O-])c2)C(=O)/C(=C/c2cccc([N+](=O)[O-])c2)C1	inconclusive: 15.8 µM [inhibitor, single point]	
O=C(Nc1ccc2c(c1)OCCO2)C(=O)c1c[nH]c2ccccc12	inconclusive: 5.59 µM [inhibitor, partial curve]	
Cc1ccc(C)c(Nc2nn3c(=O)c4ccc(C(=O)NCc5cccs5)cc4nc3s2)c1	inconclusive: 18.4 µM [inhibitor, single point]	
Cc1ccc(/C=N/NC(=O)C2COc3ccccc3O2)s1 (centres undefined)	inconclusive: 1.4 µM [inhibitor, full curve]	
N#CC1=C(N)Oc2cc(N)ccc2C1c1cccc(Br)c1 (centres undefined)	inconclusive: 1.25 µM [inhibitor, full curve]	
O=C(O)Cc1sc(NC2CCCCC2)nc1-c1ccc(Cl)cc1		inactive: -1.51%
CC(C)N1CCc2c(sc(NC(=O)c3ccc(S(=O)(=O)N4CCOCC4)cc3)c2C#N)C1	inconclusive: 20.6 µM [inhibitor, partial curve]	
Cc1cc(N2CCCC2)ccc1/C=C1/C(=O)N(C)C(=S)N1C	inconclusive: 29.1 µM [inhibitor, single point]	
Cc1ccc(C(=O)CSC2=C(C#N)C(c3ccco3)C3=C(CCCC3=O)N2)cc1 (centres undefined)	inconclusive: 14 µM [inhibitor, partial curve]	
Cc1noc(C)c1CSc1nc2ccccc2c(=O)n1-c1ccccc1	inconclusive: 2.8 µM [inhibitor, full curve]	
CCOC(=O)c1sc2cc([N+](=O)[O-])cc(SCC(C)C)c2c1N	active: 2.06 µM	
COc1ccc(-c2n[nH]c(C)c2-c2ccc(OC)c(OC)c2)c(O)c1	inconclusive: 11.2 µM [inhibitor, partial curve]	
Nc1c(C(=O)Nc2ccc(S(=O)(=O)N3CCCC3)cc2)sc2nc3cc4c(cc3cc12)CCC4	active: 6.51 µM	
CC(C)NC(=S)N/N=C1\CCCCc2ccccc21		inactive: 2.14%

Exported as a markdown table: 3 of the compounds above.

| Structure (SMILES) | Potency | max response |
| --- | --- | --- |
| Cc1ccccc1-n1c(/C=C/c2c(C)n(C)c3ccccc23)nc2ccccc2c1=O | active: 8.2 µM |  |
| COc1ccc(-c2nc3c4ccccc4ccn3c2Cc2ccsc2)cc1OC |  | inactive: -2.92% |
| CCN1C/C(=C\c2cccc([N+](=O)[O-])c2)C(=O)/C(=C/c2cccc([N+](=O)[O-])c2)C1 | inconclusive: 15.8 µM [inhibitor, single point] |  |

Continuation.

Structure (SMILES)	Potency	max response
COc1ccc(NC(=O)c2sc3nc4c(cc3c2N)CN(Cc2ccccc2)CC4)c(OC)c1	active: 20.6 µM	
CC(C)CC(=O)NC(=S)N(Cc1ccccc1)Cc1ccccc1		inactive: -4.2%
O=C(NC(=S)Nc1ccc(N2CCCCC2)c(Cl)c1)c1ccc2c(c1)OCCO2		inactive: -28.8%
COc1ccc(C(=S)N2CCN(c3cccc(Cl)c3)CC2)c(OC)c1	inconclusive: 2.23 µM [inhibitor, partial curve]	
COC(=O)c1c(-c2ccccc2Cl)noc1/C=C/N(C)C		inactive: 2.98%
COc1ccc2c(C)cc(SCC(=O)N3CCOCC3)nc2c1	inconclusive: 18.4 µM [inhibitor, single point]	
O=c1oc2cc(O)ccc2cc1-c1nc(-c2ccc(Cl)c(Cl)c2)cs1	active: 0.651 µM	
CNC(=S)N/N=C/c1ccc(N2CCOCC2)s1		inactive: -10.3%
N#CC1=C(N)Oc2cc(N)ccc2C1c1cccc(F)c1 (centres undefined)	inconclusive: 1.98 µM [inhibitor, full curve]	
Cc1cn2c(N)c(C=C3C=C(Cl)C(=O)C(Cl)=C3)c(=O)nc2s1	inconclusive: 5.17 µM [inhibitor, partial curve]	
C#CCSc1nc(-c2cccs2)ccc1C#N		inactive: -28.5%
COc1cnc(-c2ccccn2)nc1Oc1ccc(F)cc1F		inactive: 2.31%
CCc1cccc2c(C(O)c3c[nH]c4ccccc34)c[nH]c12 (centres undefined)	active: 18.4 µM	
CCOC(=O)CCSc1nc(C)cc(C(F)(F)F)c1C#N	inconclusive: 14 µM [inhibitor, single point]	
O=C(NCc1ccccc1Cl)c1cccc2c1C(=O)c1ccc(-c3ccc(OC(F)(F)F)cc3)cc1S2(=O)=O	inconclusive: 14.6 µM [inhibitor, partial curve]	
Cc1ccccc1NC(=O)CSC1=C(C#N)C(c2ccsc2)CC(=O)N1 (centres undefined)		inactive: -7.98%
CN(/N=C/c1ccc(-c2ccc([N+](=O)[O-])cc2)o1)c1ccccc1	active: 0.731 µM	
O=C1c2ccccc2C(=O)c2c(/C=C/N3CCCCC3)ccnc21	active: 20.6 µM	
COc1cc(/C=C(\C#N)c2nc3ccccc3[nH]2)ccc1O		inactive: 6%
O=C1/C(=C/c2ccc(N3CCCC3)cc2)NC(=S)N1C1CC1	active: 5.17 µM	
COc1ccc(OC)c(S(=O)(=O)N/N=C\c2cn(CC(N)=O)c3ccccc23)c1	inconclusive: 12.5 µM [inhibitor, single point]	
COc1ccc(NC(=O)c2sc3nc(C(F)(F)F)cc(C)c3c2N)cc1OC	inconclusive: 29.1 µM [inhibitor, single point]	
CCOC(=O)C1=C(CSc2nc(-c3ccccc3)ccc2C#N)OC(N)=C(C#N)C1c1cccnc1 (centres undefined)	inconclusive: 17.7 µM [inhibitor, single point]	

Structure (SMILES)	Potency	max response
COc1ccc(C(=O)c2sc3nc(-c4ccc(C)cc4)cc(C(F)(F)F)c3c2N)cc1	active: 8.2 µM	
O=C(NCc1ccccc1)c1cccc2c1C(=O)c1ccc(/C=C/c3ccccc3)cc1S2(=O)=O	active: 16.4 µM	
COc1cc(C(=O)NCCOc2cc(C)cc(C)c2)cc(OC)c1OC	inconclusive: 3.96 µM [inhibitor, partial curve]	
CC1=C/C(=C\C=C(C#N)C#N)N(C)c2ccccc21	active: 2.31 µM	
O=C(NCc1cc(C(F)(F)F)ccc1Cl)c1cccc2c1C(=O)c1ccc(N3CCOCC3)cc1S2(=O)=O	inconclusive: 20.6 µM [inhibitor, single point]	
O=C(Cn1cnc2c(cnn2-c2ccc(F)cc2)c1=O)NCc1ccco1		inactive: -25.6%
O=C(OCCC12CC3CC(CC(C3)C1)C2)c1ccc(NCc2cc(O)ccc2O)cc1	inconclusive: 17.7 µM [inhibitor, partial curve]	
CC(C)n1cc(NC(=O)c2cc(-c3ccccc3)on2)cn1	inconclusive: 2.5 µM [inhibitor, full curve]	
Clc1ccc2c(c1)C(C1=NCCN1)c1ccccc1CS2 (centres undefined)	inconclusive: 1.98 µM [inhibitor, full curve]	
CC(=O)c1cccc(-c2ccnc3c2CC(C(=O)NCc2ccco2)O3)c1 (centres undefined)	inconclusive: 1.25 µM [inhibitor, full curve]	
COc1ccccc1CNC(=O)c1ccc(Nc2nc3ccccc3n3nnnc23)cc1	inconclusive: 16.4 µM [inhibitor, partial curve]	
CN1C(=O)/C(=C/c2ccccc2OCc2ccc(F)cc2)N(C)C1=S	inconclusive: 23.1 µM [inhibitor, single point]	
COC(=O)C1=C(C)NC2=C(C(=O)CC(c3cccs3)C2)C1c1ccsc1 (centres undefined)	inconclusive: 15.8 µM [inhibitor, single point]	
CC(=O)c1cccc(-c2ccnc3c2CC(C(=O)Nc2ccc4c(c2)OCO4)O3)c1 (centres undefined)	inconclusive: 1.4 µM [inhibitor, full curve, poor fit]	
O=C(Nc1ccc(Cl)cn1)c1cccc(S(=O)(=O)N2CCCCCC2)c1		inactive: -1%
Cc1ccc(NS(=O)(=O)c2cc([N+](=O)[O-])ccc2N/N=C/c2sc(N3CCOCC3)nc2-c2ccccc2)c(C)c1	inconclusive: 0.079 µM [inhibitor, full curve, poor fit]	
CCOc1ccc(Br)cc1C(=O)Nc1ccc(C(=O)NCC(C)C)cc1		inactive: -8.08%
N#Cc1c(-c2ccc(F)cc2)c(-c2ccc(F)cc2)nn(CCO)c1=O	active: 7.04 µM	
COc1ccccc1-c1cc(C(=O)NN)[nH]n1		inactive: 7.62%
COC(=O)c1ccc(Oc2cc(C)nc(SC)n2)cc1	inconclusive: 3.14 µM [inhibitor, full curve, poor fit]	
c1ccc2c(-c3nc4ccccc4[nH]3)cccc2c1	inconclusive: 6.27 µM [inhibitor, partial curve]	
O=c1c2ccccc2c(C=Nc2cccc(O)c2)c(O)n1-c1ccc2c(c1)OCO2	inconclusive: 14 µM [inhibitor, single point]	
COc1ccccc1NC(=O)c1sc2ncn(CC(=O)Nc3ccccc3)c(=O)c2c1C	inconclusive: 20.6 µM [inhibitor, single point]	
